Data reported in the supplement of paper PMC10849652.
This is one part of the list.

Chains of the proteins cited; added tags and fusions are not shown. Lines headed by an entry give the natural chain unless they say otherwise; changes in a name come on top.
UniProt Q13185: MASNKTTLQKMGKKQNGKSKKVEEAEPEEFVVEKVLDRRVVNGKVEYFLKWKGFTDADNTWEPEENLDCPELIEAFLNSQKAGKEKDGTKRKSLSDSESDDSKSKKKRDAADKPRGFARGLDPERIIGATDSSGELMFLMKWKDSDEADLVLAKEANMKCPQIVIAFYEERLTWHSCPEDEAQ
UniProt P78371: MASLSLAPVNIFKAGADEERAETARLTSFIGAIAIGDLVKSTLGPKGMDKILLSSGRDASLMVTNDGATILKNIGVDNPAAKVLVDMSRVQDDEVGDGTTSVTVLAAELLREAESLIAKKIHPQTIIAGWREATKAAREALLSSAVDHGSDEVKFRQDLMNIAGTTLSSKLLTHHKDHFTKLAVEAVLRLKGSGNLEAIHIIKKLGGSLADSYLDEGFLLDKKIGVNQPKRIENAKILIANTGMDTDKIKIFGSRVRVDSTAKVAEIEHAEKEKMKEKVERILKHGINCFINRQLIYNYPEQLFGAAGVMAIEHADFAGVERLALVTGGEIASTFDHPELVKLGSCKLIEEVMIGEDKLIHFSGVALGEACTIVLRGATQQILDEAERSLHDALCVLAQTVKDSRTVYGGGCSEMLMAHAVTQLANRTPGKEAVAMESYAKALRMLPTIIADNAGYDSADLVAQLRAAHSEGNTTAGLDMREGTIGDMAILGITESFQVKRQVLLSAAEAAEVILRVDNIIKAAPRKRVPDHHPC
UniProt P55211: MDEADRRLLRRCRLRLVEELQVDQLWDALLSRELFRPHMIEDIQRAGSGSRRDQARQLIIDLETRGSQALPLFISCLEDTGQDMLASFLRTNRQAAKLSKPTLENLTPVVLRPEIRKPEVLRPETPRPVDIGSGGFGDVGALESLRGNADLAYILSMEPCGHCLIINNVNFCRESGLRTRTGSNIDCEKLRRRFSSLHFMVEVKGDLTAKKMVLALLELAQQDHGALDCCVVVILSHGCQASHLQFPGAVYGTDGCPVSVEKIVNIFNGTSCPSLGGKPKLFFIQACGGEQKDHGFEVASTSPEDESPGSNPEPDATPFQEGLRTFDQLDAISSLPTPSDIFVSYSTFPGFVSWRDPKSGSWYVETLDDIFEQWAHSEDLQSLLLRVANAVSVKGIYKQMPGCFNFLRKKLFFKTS
UniProt Q4VC31: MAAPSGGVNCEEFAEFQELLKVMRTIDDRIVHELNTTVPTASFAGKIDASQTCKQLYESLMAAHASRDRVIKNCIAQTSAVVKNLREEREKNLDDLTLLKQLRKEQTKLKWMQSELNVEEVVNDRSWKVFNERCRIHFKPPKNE
UniProt O75909: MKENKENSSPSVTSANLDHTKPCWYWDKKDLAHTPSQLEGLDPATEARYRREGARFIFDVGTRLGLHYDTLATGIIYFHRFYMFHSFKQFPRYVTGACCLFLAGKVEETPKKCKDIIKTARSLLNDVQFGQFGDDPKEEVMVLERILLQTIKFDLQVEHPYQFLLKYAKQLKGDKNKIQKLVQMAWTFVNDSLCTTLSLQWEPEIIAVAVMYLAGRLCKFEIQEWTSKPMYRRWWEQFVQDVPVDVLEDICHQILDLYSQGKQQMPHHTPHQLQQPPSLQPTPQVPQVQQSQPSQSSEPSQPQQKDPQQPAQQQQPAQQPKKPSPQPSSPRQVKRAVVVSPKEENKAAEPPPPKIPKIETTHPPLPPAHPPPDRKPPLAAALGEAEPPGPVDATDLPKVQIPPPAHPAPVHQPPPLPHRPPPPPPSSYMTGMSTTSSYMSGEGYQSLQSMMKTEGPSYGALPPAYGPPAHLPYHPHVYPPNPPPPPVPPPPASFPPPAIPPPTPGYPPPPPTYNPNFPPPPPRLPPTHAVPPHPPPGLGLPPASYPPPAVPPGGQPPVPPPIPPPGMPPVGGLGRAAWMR
UniProt Q8WUD4: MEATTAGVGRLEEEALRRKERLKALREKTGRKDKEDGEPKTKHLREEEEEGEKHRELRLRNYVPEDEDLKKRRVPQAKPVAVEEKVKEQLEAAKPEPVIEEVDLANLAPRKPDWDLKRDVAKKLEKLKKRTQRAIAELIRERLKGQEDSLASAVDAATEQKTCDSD
UniProt Q3V6T2: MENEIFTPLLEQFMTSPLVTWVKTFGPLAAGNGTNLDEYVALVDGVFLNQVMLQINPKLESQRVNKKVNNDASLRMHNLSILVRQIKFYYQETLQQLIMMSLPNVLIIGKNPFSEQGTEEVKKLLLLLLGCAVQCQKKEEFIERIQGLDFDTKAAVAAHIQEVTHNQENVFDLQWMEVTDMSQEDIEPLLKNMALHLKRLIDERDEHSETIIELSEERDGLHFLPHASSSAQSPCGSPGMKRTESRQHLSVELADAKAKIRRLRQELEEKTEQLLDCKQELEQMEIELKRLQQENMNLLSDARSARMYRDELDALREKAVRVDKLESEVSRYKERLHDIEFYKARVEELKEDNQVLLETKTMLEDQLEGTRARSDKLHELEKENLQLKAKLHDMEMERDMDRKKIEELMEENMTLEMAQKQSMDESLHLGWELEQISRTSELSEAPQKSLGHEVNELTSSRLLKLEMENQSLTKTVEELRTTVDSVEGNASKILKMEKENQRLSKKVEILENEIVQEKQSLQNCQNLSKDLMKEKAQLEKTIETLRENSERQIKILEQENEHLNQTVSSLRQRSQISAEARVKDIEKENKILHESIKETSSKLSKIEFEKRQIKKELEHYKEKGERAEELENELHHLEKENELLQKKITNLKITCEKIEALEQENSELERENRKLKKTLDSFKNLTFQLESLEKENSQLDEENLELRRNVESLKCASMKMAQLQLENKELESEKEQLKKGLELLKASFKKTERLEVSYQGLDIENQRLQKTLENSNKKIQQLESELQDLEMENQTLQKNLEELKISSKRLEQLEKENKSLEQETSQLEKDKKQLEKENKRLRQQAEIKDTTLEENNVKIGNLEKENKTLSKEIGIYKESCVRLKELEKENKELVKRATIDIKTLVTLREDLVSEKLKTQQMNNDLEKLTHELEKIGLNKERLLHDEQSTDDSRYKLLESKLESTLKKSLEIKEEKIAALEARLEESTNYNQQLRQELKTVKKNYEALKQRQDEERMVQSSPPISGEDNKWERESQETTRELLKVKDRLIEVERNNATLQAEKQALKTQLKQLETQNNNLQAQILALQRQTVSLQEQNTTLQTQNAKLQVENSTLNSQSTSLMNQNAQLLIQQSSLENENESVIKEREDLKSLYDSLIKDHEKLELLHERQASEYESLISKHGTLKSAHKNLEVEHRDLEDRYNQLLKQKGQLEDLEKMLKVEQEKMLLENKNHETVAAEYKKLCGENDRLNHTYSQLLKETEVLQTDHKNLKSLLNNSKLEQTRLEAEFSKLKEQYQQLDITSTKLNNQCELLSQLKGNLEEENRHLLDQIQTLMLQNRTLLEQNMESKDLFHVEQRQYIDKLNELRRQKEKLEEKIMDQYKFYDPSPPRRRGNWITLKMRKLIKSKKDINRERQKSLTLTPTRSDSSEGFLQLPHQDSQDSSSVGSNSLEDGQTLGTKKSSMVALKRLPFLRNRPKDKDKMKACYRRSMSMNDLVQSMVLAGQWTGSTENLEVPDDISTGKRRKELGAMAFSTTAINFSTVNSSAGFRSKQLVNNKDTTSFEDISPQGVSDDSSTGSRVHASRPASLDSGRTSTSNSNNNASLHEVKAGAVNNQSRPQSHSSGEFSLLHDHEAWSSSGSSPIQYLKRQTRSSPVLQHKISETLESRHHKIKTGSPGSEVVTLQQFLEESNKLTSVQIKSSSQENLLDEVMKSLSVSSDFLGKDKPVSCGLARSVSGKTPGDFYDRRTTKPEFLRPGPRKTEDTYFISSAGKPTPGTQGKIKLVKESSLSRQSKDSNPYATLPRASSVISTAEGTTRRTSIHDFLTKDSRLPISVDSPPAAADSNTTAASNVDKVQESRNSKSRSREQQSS
UniProt Q8N7R7: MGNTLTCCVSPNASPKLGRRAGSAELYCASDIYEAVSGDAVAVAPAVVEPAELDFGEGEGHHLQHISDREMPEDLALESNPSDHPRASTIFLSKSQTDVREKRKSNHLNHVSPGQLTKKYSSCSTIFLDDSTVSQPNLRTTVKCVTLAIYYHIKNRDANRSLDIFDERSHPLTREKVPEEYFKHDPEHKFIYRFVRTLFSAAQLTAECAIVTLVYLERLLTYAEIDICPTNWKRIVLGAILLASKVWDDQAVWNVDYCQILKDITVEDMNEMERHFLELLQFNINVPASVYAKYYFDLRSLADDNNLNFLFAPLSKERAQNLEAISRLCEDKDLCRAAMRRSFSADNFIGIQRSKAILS
UniProt Q5RIA9: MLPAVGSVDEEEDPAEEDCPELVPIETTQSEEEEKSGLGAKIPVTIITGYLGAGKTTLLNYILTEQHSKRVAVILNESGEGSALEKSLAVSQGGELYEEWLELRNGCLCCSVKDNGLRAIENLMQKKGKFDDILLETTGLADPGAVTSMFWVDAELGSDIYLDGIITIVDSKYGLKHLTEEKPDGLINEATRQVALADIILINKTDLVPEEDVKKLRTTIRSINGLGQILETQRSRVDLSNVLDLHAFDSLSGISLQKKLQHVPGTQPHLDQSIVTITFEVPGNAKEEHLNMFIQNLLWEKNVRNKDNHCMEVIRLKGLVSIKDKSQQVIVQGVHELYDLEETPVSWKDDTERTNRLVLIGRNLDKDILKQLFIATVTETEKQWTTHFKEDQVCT
UniProt Q9HA77: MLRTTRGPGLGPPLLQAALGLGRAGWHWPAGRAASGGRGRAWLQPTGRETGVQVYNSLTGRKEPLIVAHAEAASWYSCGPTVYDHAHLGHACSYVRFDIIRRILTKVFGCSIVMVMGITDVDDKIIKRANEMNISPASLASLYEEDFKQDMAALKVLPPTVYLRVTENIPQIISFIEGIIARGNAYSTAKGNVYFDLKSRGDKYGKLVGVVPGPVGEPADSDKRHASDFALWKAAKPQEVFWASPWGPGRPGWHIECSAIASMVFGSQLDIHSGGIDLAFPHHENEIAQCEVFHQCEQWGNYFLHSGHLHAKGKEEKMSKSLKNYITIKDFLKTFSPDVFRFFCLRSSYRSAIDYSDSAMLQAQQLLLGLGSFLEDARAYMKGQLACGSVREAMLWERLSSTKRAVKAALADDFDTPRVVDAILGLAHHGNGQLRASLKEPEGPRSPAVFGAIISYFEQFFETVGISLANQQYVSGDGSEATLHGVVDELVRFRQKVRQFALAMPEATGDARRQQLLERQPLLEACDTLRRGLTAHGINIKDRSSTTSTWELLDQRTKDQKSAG
UniProt O95273: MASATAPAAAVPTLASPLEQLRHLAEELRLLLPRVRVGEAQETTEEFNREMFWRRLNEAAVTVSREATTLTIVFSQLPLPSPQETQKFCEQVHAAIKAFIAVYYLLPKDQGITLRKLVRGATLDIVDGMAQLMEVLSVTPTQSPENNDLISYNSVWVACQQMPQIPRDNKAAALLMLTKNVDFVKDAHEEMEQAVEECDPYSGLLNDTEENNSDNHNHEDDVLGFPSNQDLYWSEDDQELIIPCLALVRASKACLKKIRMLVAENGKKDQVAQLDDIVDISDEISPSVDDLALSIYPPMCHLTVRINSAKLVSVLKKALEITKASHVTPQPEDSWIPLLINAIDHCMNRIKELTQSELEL
UniProt P48509: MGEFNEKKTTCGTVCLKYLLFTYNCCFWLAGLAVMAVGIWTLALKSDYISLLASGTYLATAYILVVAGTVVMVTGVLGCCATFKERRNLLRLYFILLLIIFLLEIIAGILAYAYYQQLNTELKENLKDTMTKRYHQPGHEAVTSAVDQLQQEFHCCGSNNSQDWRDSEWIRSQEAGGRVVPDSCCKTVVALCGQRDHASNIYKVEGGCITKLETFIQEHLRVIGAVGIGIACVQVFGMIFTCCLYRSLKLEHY
UniProt P48643, whole entry, looked up: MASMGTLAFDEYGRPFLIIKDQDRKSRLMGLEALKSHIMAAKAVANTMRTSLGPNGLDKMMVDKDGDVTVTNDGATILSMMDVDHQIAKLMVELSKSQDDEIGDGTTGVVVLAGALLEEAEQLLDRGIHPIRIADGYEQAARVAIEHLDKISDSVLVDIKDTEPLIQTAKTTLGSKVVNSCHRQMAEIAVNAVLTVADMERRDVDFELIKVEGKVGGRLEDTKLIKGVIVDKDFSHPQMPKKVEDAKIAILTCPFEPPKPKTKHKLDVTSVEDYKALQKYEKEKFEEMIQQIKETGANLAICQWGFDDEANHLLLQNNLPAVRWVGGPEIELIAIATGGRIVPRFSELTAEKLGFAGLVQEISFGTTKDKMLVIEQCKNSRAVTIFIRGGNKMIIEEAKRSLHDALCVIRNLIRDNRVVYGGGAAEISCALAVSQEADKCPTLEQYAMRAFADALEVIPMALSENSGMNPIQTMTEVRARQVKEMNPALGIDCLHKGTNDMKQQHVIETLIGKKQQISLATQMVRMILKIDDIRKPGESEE
UniProt Q9Y2V2: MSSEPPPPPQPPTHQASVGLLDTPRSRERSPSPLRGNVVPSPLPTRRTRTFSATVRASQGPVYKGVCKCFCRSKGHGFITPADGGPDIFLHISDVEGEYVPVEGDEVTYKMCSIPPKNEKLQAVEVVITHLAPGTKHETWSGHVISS

compound: Cc1cn(-c2cc(NC(=O)c3ccc(C)c(Nc4nccc(-c5cccnc5)n4)c3)cc(C(F)(F)F)c2)cn1 [nilotinib]; assay: log2 fold change, soluble protein after heating vs DMSO (PISA); higher = thermal stabilisation; K562 lysate, 10 uM; active = over 0.2 and 3.5 SD of the protein, either way, in both replicates (recomputed)
Procedure, shortened: (§1)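 Values give the log-two fold change in thermal stability against solvent controls, from duplicates. Crude K562 extract at 1 mg/mL protein, made by dounce homogenisation in PBS pH 7.4 with 1 mM MgCl2, was treated with 10 μM compound for 30 min. After 3 min heating across 48°C-58°C, aliquots were pooled, adjusted to 0.5% NP-40 at 4°C and centrifuged at 21,000xg for 90 min. The supernatant was measured by TMTpro 16plex LC-MS/MS with channel sums equalised.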

log2 fold change, inactive:
CD46 isoform 2 (UniProt P15529) -0.052
CCNB2 (UniProt O95067) -0.053
CBX3 (UniProt Q13185) 0.036
CCT2 (UniProt P78371) 0.005
CASP3 (UniProt P42574) 0.032
CCNB1 (UniProt P14635) -0.04
CAT (UniProt P04040) 0.035
CCT6A (UniProt P40227) -0.003
CASP9 (UniProt P55211) -0.004
CCDC58 (UniProt Q4VC31) 0.061
CD47 (UniProt Q08722) -0.01
CCNK isoform 4 (UniProt O75909) 0.011
CCDC12 (UniProt Q8WUD4) -0.024
CCDC93 (UniProt Q567U6) -0.046
CBX4 (UniProt O00257) -0.06
CCDC25 (UniProt Q86WR0) 0.016
CCDC88A (UniProt Q3V6T2) -0.046
CCDC88C (UniProt Q9P219) 0.091
CCDC22 (UniProt O60826) 0.007
CCDC97 (UniProt Q96F63) -0.005
CCNYL1 (UniProt Q8N7R7) -0.001
CBLB (UniProt Q13191) -0.023
CAVIN1 (UniProt Q6NZI2) 0.004
CBWD5 (UniProt Q5RIA9) 0.043
CARS2 (UniProt Q9HA77) 0.022
CCAR1 (UniProt Q8IX12) 0.013
CCNDBP1 (UniProt O95273) 0.005
CCS (UniProt O14618) -0.018
CD151 (UniProt P48509) -0.1
CCDC6 (UniProt Q16204) 0.01
CCDC117 (UniProt Q8IWD4) -0.071
CCT5 (UniProt P48643) 0.001
CARHSP1 (UniProt Q9Y2V2) 0.037

compound: Cc1nc(Nc2n[nH]c3c2CN(C(=O)N[C@H](CN(C)C)c2ccccc2)C3(C)C)c2sccc2n1; assay: as above
Procedure, shortened: as §1

log2 fold change, inactive:
CD46 isoform 2 (UniProt P15529) 0.011
CCNB2 (UniProt O95067) 0.081
CBX3 (UniProt Q13185) -0.06
CCT2 (UniProt P78371) -0.019
CASP3 (UniProt P42574) -0.024
CCNB1 (UniProt P14635) 0.037
CAT (UniProt P04040) -0.032
CCT6A (UniProt P40227) -0.004
CASP9 (UniProt P55211) 0.006
CCDC58 (UniProt Q4VC31) -0.006
CD47 (UniProt Q08722) -0.036
CCNK isoform 4 (UniProt O75909) -0.03
CCDC12 (UniProt Q8WUD4) 0.03
CCDC93 (UniProt Q567U6) -0.026
CBX4 (UniProt O00257) 0.206
CCDC25 (UniProt Q86WR0) -0.023
CCDC88A (UniProt Q3V6T2) 0.043
CCDC88C (UniProt Q9P219) 0.072
CCDC22 (UniProt O60826) -0.018
CCDC97 (UniProt Q96F63) -0.01
CCNYL1 (UniProt Q8N7R7) -0.033
CBLB (UniProt Q13191) 0.064
CAVIN1 (UniProt Q6NZI2) 0.002
CBWD5 (UniProt Q5RIA9) -0.01
CARS2 (UniProt Q9HA77) 0.014
CCAR1 (UniProt Q8IX12) 0
CCNDBP1 (UniProt O95273) 0.009
CCS (UniProt O14618) 0.013
CD151 (UniProt P48509) -0.05
CCDC6 (UniProt Q16204) -0.007
CCDC117 (UniProt Q8IWD4) 0.032
CCT5 (UniProt P48643) 0.001
CARHSP1 (UniProt Q9Y2V2) -0.037

compound: Cc1nc(Nc2ncc(C(=O)Nc3c(C)cccc3Cl)s2)cc(N2CCN(CCO)CC2)n1 [dasatinib]; assay: as above
Procedure, shortened: as §1

log2 fold change, inactive:
CD46 isoform 2 (UniProt P15529) 0.064
CCNB2 (UniProt O95067) -0.016
CBX3 (UniProt Q13185) 0.021
CCT2 (UniProt P78371) 0.005
CASP3 (UniProt P42574) 0.053
CCNB1 (UniProt P14635) -0.016
CAT (UniProt P04040) 0.018
CCT6A (UniProt P40227) -0.001
CASP9 (UniProt P55211) -0.055
CCDC58 (UniProt Q4VC31) 0.078
CD47 (UniProt Q08722) 0.031
CCNK isoform 4 (UniProt O75909) -0.051
CCDC12 (UniProt Q8WUD4) 0.085
CCDC93 (UniProt Q567U6) -0.073
CBX4 (UniProt O00257) -0.04
CCDC25 (UniProt Q86WR0) -0.043
CCDC88A (UniProt Q3V6T2) 0.021
CCDC88C (UniProt Q9P219) -0.001
CCDC22 (UniProt O60826) -0.055
CCDC97 (UniProt Q96F63) -0.005
CCNYL1 (UniProt Q8N7R7) 0.034
CBLB (UniProt Q13191) -0.228
CAVIN1 (UniProt Q6NZI2) 0.038
CBWD5 (UniProt Q5RIA9) -0.019
CARS2 (UniProt Q9HA77) 0.012
CCAR1 (UniProt Q8IX12) -0.049
CCNDBP1 (UniProt O95273) -0.017
CCS (UniProt O14618) 0
CD151 (UniProt P48509) 0.03
CCDC6 (UniProt Q16204) 0.013
CCDC117 (UniProt Q8IWD4) 0.088
CCT5 (UniProt P48643) 0.006
CARHSP1 (UniProt Q9Y2V2) 0.017
